Data as given in the supplement of paper PMC3334620.
The full ranking holds about 33,000 sequences; the median of “E-score (-0.5 to 0.5)” is about -0.0059, and the highest 2% start at about 0.26. The list shows a part of the results.

What follows are sequences tested against T1, Cin5 (UniProt P40917) (assay: PBM E-score (8-mer binding enrichment) (E-score (-0.5 to 0.5)); higher = stronger / more preferred TF binding). Details: protein concentration: 100 nM; construct: GST-full length.
T1 sequence: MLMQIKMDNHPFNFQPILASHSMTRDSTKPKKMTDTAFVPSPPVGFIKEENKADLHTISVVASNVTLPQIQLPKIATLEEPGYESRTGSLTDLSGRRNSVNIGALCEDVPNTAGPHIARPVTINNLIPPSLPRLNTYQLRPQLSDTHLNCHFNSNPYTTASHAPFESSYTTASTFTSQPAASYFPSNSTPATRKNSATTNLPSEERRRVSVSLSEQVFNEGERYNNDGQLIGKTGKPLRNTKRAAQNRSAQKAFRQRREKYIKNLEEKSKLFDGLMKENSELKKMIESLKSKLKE
Summary of the method: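 E-scores (a modified Wilcoxon-Mann-Whitney statistic) were assigned by the Universal PBM Analysis Suite to every ungapped eight-base word pooled with its reverse complement. The input came from universal all-10-mer Agilent arrays made double-stranded by primer extension and probed with GST-tagged yeast transcription factors at about 100-200 nM. Fluorescent anti-GST detected bound protein, and masliner normalised the scans.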
In the case of CATCAGAC, the “PBM E-score” value is reported as 0.0451.
In the case of ACGCCCAT, the “PBM E-score” value is reported as 0.0611.
With ACCCATGG the “PBM E-score” value was -0.0337.
With CGATATTA the “PBM E-score” value was 0.355.
In the case of GCAGAAAA, the “PBM E-score” value is reported as 0.124.
With CCATGAGG the “PBM E-score” value was -0.119.
In the case of CGGAAGAC, the “PBM E-score” value is reported as -0.0333.
CTTTAGCA was tested, and the “PBM E-score” value was -0.128.
With GCCTTAAA the “PBM E-score” value was 0.0308.
ACATGTGG was tested, and the “PBM E-score” value was 0.123.
AAGTTGGA was tested, and the “PBM E-score” value was 0.0299.
For CGCGGCCC, the “PBM E-score” value was 0.0293.
GAGCTGAC was tested, and the “PBM E-score” value was 0.115.
With CTTTCATC the “PBM E-score” value was 0.0295.
In the case of TCATACGA, the “PBM E-score” value is reported as 0.108.
With GTTATATA the “PBM E-score” value was 0.271.
With CCGCGCGA the “PBM E-score” value was 0.186.
With TGTACGAA the “PBM E-score” value was 0.0993.
In the case of ATCAACTC, the “PBM E-score” value is reported as 0.0259.
For CTCGAGAC, the “PBM E-score” value was 0.0883.
CGGGGCGA was tested, and the “PBM E-score” value was 0.106.
In the case of AGTACGAT, the “PBM E-score” value is reported as 0.124.
With CAGTAGGC the “PBM E-score” value was -0.0123.
With AACCCAAG the “PBM E-score” value was 0.0519.
In the case of AAGCGGCA, the “PBM E-score” value is reported as 0.149.
For GAAGCAAA, the “PBM E-score” value was -0.00036.
With AAGTTGCA the “PBM E-score” value was 0.036.
GGGGCCCC was tested, and the “PBM E-score” value was -0.0592.
CTTCCGAC was tested, and the “PBM E-score” value was -0.206.
For GTTTCGTA, the “PBM E-score” value was 0.194.
With ACCAACTC the “PBM E-score” value was -0.0248.
ACGCCAGT was tested, and the “PBM E-score” value was -0.13.
With CTTATACC the “PBM E-score” value was 0.122.
In the case of AGTCTAAA, the “PBM E-score” value is reported as -0.071.
For CCAGAAAC, the “PBM E-score” value was 0.0262.
In the case of ACCTCCGT, the “PBM E-score” value is reported as -0.176.
In the case of GTACGTTA, the “PBM E-score” value is reported as 0.159.
With CACTTAAC the “PBM E-score” value was 0.0141.
For ACAATCAG, the “PBM E-score” value was 0.134.
For GGGTCTTA, the “PBM E-score” value was -0.0273.
In the case of CACGGCAC, the “PBM E-score” value is reported as -0.19.
For CTTGTGGC, the “PBM E-score” value was -0.258.
For ATTATAAT, the “PBM E-score” value was 0.265.
TAGATTAA was tested, and the “PBM E-score” value was 0.154.
In the case of ACACTAAT, the “PBM E-score” value is reported as 0.149.
With CGGCTGTC the “PBM E-score” value was -0.11.
In the case of CCCCTGTA, the “PBM E-score” value is reported as 0.0428.
AACAATCC was tested, and the “PBM E-score” value was 0.152.
For CAATCAAA, the “PBM E-score” value was 0.151.
In the case of AGACTCTA, the “PBM E-score” value is reported as -0.177.
In the case of CCCGGCTC, the “PBM E-score” value is reported as -0.287.
CGAGCGTC was tested, and the “PBM E-score” value was -0.163.
For CCTTCGAA, the “PBM E-score” value was -0.116.
ATTATTGC was tested, and the “PBM E-score” value was 0.22.
With CCGCCCGC the “PBM E-score” value was 0.116.
In the case of CCTTGTAA, the “PBM E-score” value is reported as 0.0736.
AAGCCTCG was tested, and the “PBM E-score” value was 0.0374.
With GATCAGAC the “PBM E-score” value was -0.0282.
With ACACCATG the “PBM E-score” value was 0.0111.
For CCAAACAA, the “PBM E-score” value was 0.0879.
In the case of ACGAATAC, the “PBM E-score” value is reported as 0.224.
With AATACGGC the “PBM E-score” value was 0.146.
For AGTTGTGA, the “PBM E-score” value was 0.0963.
For GGAAACAA, the “PBM E-score” value was 0.0974.
With ATTCCTTC the “PBM E-score” value was 0.155.
With GAGATATA the “PBM E-score” value was 0.0101.
For GCAGGAGC, the “PBM E-score” value was -0.285.
CACGTCGC was tested, and the “PBM E-score” value was -0.119.
For ATCCACAA, the “PBM E-score” value was 0.0817.
For ACGGCAGT, the “PBM E-score” value was -0.191.
In the case of CAGCTGAC, the “PBM E-score” value is reported as 0.154.
For CACACTCG, the “PBM E-score” value was 0.22.
For CTATCGGC, the “PBM E-score” value was -0.0472.
In the case of CGTTGTGC, the “PBM E-score” value is reported as -0.0586.
With AAGGCGAC the “PBM E-score” value was -0.147.
For GAGGCACA, the “PBM E-score” value was -0.133.
For AGGAGGCG, the “PBM E-score” value was -0.133.
For TAAGCGTA, the “PBM E-score” value was 0.126.
In the case of CGCGGTTC, the “PBM E-score” value is reported as 0.0646.
AGGGGCTC was tested, and the “PBM E-score” value was -0.243.
GCCCAGTA was tested, and the “PBM E-score” value was -0.0745.
TACCCTCA was tested, and the “PBM E-score” value was -0.00847.
With AAGGTACC the “PBM E-score” value was -0.18.
In the case of GTTACAAA, the “PBM E-score” value is reported as 0.184.
With CCAGCGCA the “PBM E-score” value was -0.132.
For CCTCTTCC, the “PBM E-score” value was -0.159.
ACTTGTAC was tested, and the “PBM E-score” value was 0.00779.
In the case of GACGAACC, the “PBM E-score” value is reported as -0.115.
For ATGGTAGC, the “PBM E-score” value was -0.102.
In the case of ACAGTGAG, the “PBM E-score” value is reported as -0.0526.
For ACCGGCAC, the “PBM E-score” value was -0.0555.
For CTTAGACC, the “PBM E-score” value was -0.1.
With GCTCACTA the “PBM E-score” value was 0.00961.
With AATTACCT the “PBM E-score” value was 0.0437.
With CTTAGCTC the “PBM E-score” value was -0.106.
With GGGCATTA the “PBM E-score” value was -0.217.
With CCTTCCAC the “PBM E-score” value was -0.046.
For AAAATCTT, the “PBM E-score” value was -0.0659.
For AGAGGGAG, the “PBM E-score” value was -0.225.
TGACCCCA was tested, and the “PBM E-score” value was 0.019.
With AGTTAACG the “PBM E-score” value was 0.106.
For ACGGGCTG, the “PBM E-score” value was -0.179.
For GGCTAGCC, the “PBM E-score” value was -0.2.
For TCGGTAGA, the “PBM E-score” value was -0.0323.
For CAGTCTAA, the “PBM E-score” value was 0.171.
With GTCGTTTA the “PBM E-score” value was 0.0464.
With ACCCCAGT the “PBM E-score” value was 0.228.
In the case of AGATGATG, the “PBM E-score” value is reported as 0.27.
With CTTCCATA the “PBM E-score” value was -0.201.
For CAGGAAGG, the “PBM E-score” value was -0.315.
With CAGGTAGA the “PBM E-score” value was -0.0578.
In the case of GGCCGTTA, the “PBM E-score” value is reported as 0.0315.
For GGGGGGCA, the “PBM E-score” value was -0.427.
With AAAAATCG the “PBM E-score” value was -0.0511.
In the case of AAGCTCCT, the “PBM E-score” value is reported as -0.226.
For AAACGGGA, the “PBM E-score” value was 0.126.
For AAGTTCCG, the “PBM E-score” value was 0.0869.
With GTGCAGGA the “PBM E-score” value was -0.0289.
With TACTGAGA the “PBM E-score” value was -0.0565.
In the case of ACTTCTTA, the “PBM E-score” value is reported as 0.0563.
For GCCCCGAA, the “PBM E-score” value was 0.106.
With CTATGATA the “PBM E-score” value was 0.116.
With CAGCTCTA the “PBM E-score” value was -0.0951.
With AAAGCAGG the “PBM E-score” value was -0.0862.
GGTTGGTA was tested, and the “PBM E-score” value was 0.0759.
GCATCCCA was tested, and the “PBM E-score” value was -0.194.
With CATGGGGG the “PBM E-score” value was -0.399.
In the case of TGCCGGCA, the “PBM E-score” value is reported as 0.109.
For CAGCGCGA, the “PBM E-score” value was -0.00789.
GGAGTAAC was tested, and the “PBM E-score” value was -0.0806.
In the case of AGCGATCA, the “PBM E-score” value is reported as -0.052.
For CGCTACCG, the “PBM E-score” value was -0.155.
For GGTCTCTA, the “PBM E-score” value was -0.0547.
In the case of AGCATAGC, the “PBM E-score” value is reported as -0.0747.
In the case of CTGTGTGA, the “PBM E-score” value is reported as 0.142.
For CATTGCGG, the “PBM E-score” value was -0.0746.
For AACGACCT, the “PBM E-score” value was 0.0526.
For TTCATGAA, the “PBM E-score” value was 0.0642.
In the case of GCGTGTGA, the “PBM E-score” value is reported as -0.0649.
For CGCTTATC, the “PBM E-score” value was 0.126.
With ACAACCTC the “PBM E-score” value was -0.0697.
ACCCGTAG was tested, and the “PBM E-score” value was -0.249.
With CAGGGGCG the “PBM E-score” value was -0.079.
In the case of ATCGCAAG, the “PBM E-score” value is reported as 0.0365.
With GGTGTACA the “PBM E-score” value was -0.034.
CTAAAGTA was tested, and the “PBM E-score” value was -0.0582.
For AACGCCTC, the “PBM E-score” value was -0.25.
CCAGTAAC was tested, and the “PBM E-score” value was -0.0821.
With ATTGCCGA the “PBM E-score” value was -0.0415.
With CTATATAG the “PBM E-score” value was 0.103.
In the case of AGCCTGCA, the “PBM E-score” value is reported as -0.0216.
In the case of CCAATTTA, the “PBM E-score” value is reported as 0.247.
For AGAATGGA, the “PBM E-score” value was 0.111.
For CTTCCCCA, the “PBM E-score” value was -0.116.
ATAGGGTG was tested, and the “PBM E-score” value was -0.109.
With GTTGGATA the “PBM E-score” value was 0.0096.
With TCATATCA the “PBM E-score” value was 0.0786.
With CCATCCAC the “PBM E-score” value was -0.0374.
AACTGATC was tested, and the “PBM E-score” value was 0.0762.
For CCGCAACG, the “PBM E-score” value was -1e-05.
With ATTATCAA the “PBM E-score” value was 0.274.
For CCCATCGG, the “PBM E-score” value was -0.0343.
For AGGCTCTA, the “PBM E-score” value was -0.177.
CTCCGACA was tested, and the “PBM E-score” value was -0.117.
ACTCTTGG was tested, and the “PBM E-score” value was -0.182.
With TCAAGAGA the “PBM E-score” value was 0.0118.
In the case of ATCGCTCC, the “PBM E-score” value is reported as -0.155.
With AGTCATCC the “PBM E-score” value was -0.0957.
In the case of CATAAGGA, the “PBM E-score” value is reported as -0.0122.
In the case of GCGCGTAC, the “PBM E-score” value is reported as 0.0346.
In the case of CAGCCCGG, the “PBM E-score” value is reported as -0.0638.
CAGGATCG was tested, and the “PBM E-score” value was -0.113.
